Results are given in words; binding and its absence hold for the method and conditions named. Binding seen in cells or lysates may run through a third protein. Some binding calls cover weakened binding; strength is not graded here. For some assays here: Sequences can lack the tags named with a protein. Blank lines part the entries; values can stand above or below the molecule they belong to.
How the values were obtained:
[1] = target: T1, FLAG-tagged deubiquitinating enzyme 3 (DUB3) (UniProt Q6R6M4); test: co-IP; HEK293T cells transfected with FLAG-DUB3; lysates incubated with anti-FLAG-agarose; Western blot for KLF4; RIPA buffer, 4 °C for 4 h
T1 sequence: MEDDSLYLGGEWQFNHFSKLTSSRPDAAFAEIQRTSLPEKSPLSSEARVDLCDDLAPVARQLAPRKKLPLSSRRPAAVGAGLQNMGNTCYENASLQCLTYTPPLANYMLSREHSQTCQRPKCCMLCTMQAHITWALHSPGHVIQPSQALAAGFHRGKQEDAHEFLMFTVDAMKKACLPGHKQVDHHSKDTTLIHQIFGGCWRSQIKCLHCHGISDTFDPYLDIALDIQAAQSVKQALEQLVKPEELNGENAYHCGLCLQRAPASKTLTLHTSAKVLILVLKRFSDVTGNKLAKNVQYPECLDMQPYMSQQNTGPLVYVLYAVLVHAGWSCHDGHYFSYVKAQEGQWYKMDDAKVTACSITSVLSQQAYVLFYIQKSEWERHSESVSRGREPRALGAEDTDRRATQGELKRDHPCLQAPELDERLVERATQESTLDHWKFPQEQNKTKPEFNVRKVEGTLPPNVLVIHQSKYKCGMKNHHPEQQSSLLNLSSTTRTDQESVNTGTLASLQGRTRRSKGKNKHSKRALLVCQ

Sequences of proteins named here, by UniProt entry; tags and fusion partners are left off.
UniProt O43474: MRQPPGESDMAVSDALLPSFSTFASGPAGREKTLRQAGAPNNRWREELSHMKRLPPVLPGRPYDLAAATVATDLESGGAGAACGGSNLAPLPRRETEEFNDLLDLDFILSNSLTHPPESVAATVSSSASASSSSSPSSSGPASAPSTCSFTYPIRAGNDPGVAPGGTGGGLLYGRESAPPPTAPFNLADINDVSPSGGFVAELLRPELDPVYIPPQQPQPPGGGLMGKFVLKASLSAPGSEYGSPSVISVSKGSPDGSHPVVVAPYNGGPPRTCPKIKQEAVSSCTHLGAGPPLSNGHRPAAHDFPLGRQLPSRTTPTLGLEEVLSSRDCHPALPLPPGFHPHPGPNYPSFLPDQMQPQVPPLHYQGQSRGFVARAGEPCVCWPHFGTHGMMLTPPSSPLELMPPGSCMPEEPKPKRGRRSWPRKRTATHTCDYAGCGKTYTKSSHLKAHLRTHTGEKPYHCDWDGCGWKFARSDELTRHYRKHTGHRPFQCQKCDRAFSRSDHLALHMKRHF

[2] = target: Krüppel-like factor 4 (KLF4), endogenous in Hep3B cells (human (endogenous in Hep3B)) (UniProt O43474); test: co-IP; Hep3B cell lysates immunoprecipitated with control IgG, anti-KLF4 or anti-DUB3; Western blot for DUB3 and KLF4; endogenous proteins; RIPA buffer, protein A/G-agarose, 4 °C for 4 h

binding [1]: binds
Molecule: Krüppel-like factor 4 (KLF4), endogenous in HEK293T cells (from UniProt O43474 1-513)

binding [2]: binds
B1: deubiquitinating enzyme 3 (DUB3), endogenous in Hep3B cells (enzyme, UniProt Q6R6M4 1-530)
chain: T1 sequence

From publication PMC8983766
